Drawing on patent US20130085469A1, “TAUROLIDINE FORMULATIONS AND DELIVERY: THERAPEUTIC TREATMENTS AND ANTIMICROBIAL PROTECTION AGAINST BACTERIAL BIOFILM FORMATION” (priority 2004, published 2013), this text covers CP/MIC and AUC/MIC for 2 molecules.

The data set concerns bacteria. The experiment in a line: PK/PD surrogate markers calculated from concentration profiles.

Each structure is given as a SMILES string.

In the case of `CN[C@H](CC(C)C)C(=O)N[C@H]1C(=O)N[C@@H](CC(N)=O)C(=O)N[C@H]2C(=O)N[C@H]3C(=O)N[C@H](C(=O)N[C@H](C(=O)O)c4cc(O)cc(O)c4-c4cc3ccc4O)[C@H](O)c3ccc(c(Cl)c3)Oc3cc2cc(c3O[C@@H]2O[C@H](CO)[C@@H](O)[C@H](O)[C@H]2O[C@H]2C[C@](C)(N)[C@H](O)[C@H](C)O2)Oc2ccc(cc2Cl)[C@H]1O` [Vancomycin], the CP/MIC was 12.

As for `O=S1(=O)CCN(CN2CCS(=O)(=O)NC2)CN1` [Taurolidine, 4,4′ Methlyen-bis(tetrahydro-2H-1,4-thiadiazin-1,1dioxide)], the CP/MIC was 0.3. The AUC/MIC (AUC from clearance curve in FIG. 4) is 2.26.
